# Data reported in US6514963B2, “Methods for the inhibition of egg production in trematodes” (The Regents of the University of California, priority 2000, dated 2003).
# Read-outs that look alike come from different tables or passages of the source.
# System: Echinostoma caproni
# Conditions: 24 hours
compound,measurement,setting,value
"COC(=O)C1=C(C)NC(C)=C(C(=O)OC)C1c1ccccc1[N+](=O)[O-] [nifedipine, 1,4-dihydro-2,6-dimethyl-4-(2-nitrophenyl)-3,5-pyridinedicarboxylic acid dimethylester]",effect on egg production compared to controls,25 μg/ml (lowest elevated concentration),did not significantly inhibit
same,effect on egg production compared to controls,"elevated concentrations (microgram range: verapamil 50-200, nifedipine 25-200, diltiazem 5-50 μg/ml), ANOVA",significantly inhibited
same,effect on egg production compared to controls,therapeutic concentrations (nanogram range),approached significant levels
